Values from PubChem BioAssay AID652272 (Drosophila RNAi Screening Center, 2013).
The deposit covers about 21,000 reagents; shown is a random part of those that have a named target and a result. In the full data, 503 (2.4%) were called active. 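Raw plate light values, not normalised; calls rest on replicate z-scores that were not deposited; hits include reporter decreases as well as increases.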 A number with no mark means an inactive call. A plus sign joins genes that one reagent is predicted to hit. Not stated in the record: the amount of reagent, the time to read-out.

Assay: 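Genes whose knock-down decreases or increases Hedgehog reporter output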 (primary screen)
Cell system: Drosophila clone 8 (Cl8) cells
Reagent: long dsRNA against Drosophila genes
Read-out: 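Plate reader light from a firefly reporter under a ptc promoter fragment that responds to Hedgehog, with Renilla light as transfection reference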
Direction: firefly Hh reporter signal: higher = more ptc reporter light; Renilla reference signal: higher = more Renilla control light
Rule for the call: 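Hit when the z-score averaged over two replicates is under -2 or over +3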
Calls: active = hit: reporter lowered or raised; inactive = not a hit

The first 2 entries, to show the layout:
gene	dsRNA	firefly Hh reporter signal, replicate 1	firefly Hh reporter signal, replicate 2	firefly Hh reporter signal, replicate 3	Renilla reference signal, replicate 1	Renilla reference signal, replicate 2
CG5961	DRSC15927	1.74e5	1.51e5		7337	5788
CkIIalpha	DRSC11946	37996	45243		1804	1819

Results, from the first entry:
gene	dsRNA	firefly Hh reporter signal, replicate 1	firefly Hh reporter signal, replicate 2	firefly Hh reporter signal, replicate 3	Renilla reference signal, replicate 1	Renilla reference signal, replicate 2
CG5961	DRSC15927	1.74e5	1.51e5		7337	5788
CkIIalpha	DRSC11946	37996	45243		1804	1819
CG9166	DRSC07842	61956	47988		2428	3344
CG32572	DRSC19525	76900	1.83e5		2070	8070
CG32572	DRSC19526	63324	1.74e5		1241	7932
Vlet	DRSC19845	1.02e5	70128		2393	1786
mud	DRSC19019	7.87e5	6.25e5	3.14e5	46002	5397
CG8079	DRSC07070	1.23e5	1.18e5		5060	4144
CG8079	DRSC07071	62605	64940		1504	4187
Fpps	DRSC07429	62418	54359		2017	2162
CCAP-R	DRSC14891	4.86e5	96902		26048	7350
CCAP-R	DRSC15967	5.72e5	1.03e5		29525	7844
Adgf-B	DRSC10568	1.00e5			1650	3196
CG32536 + CG32537	DRSC20074	1.73e5	5.65e5	3.33e5	6345	3571
CG32188	DRSC09510	2.06e5			5233	
CG32053	DRSC10683	81347	74641		3904	2897
CG8389	DRSC07158	1.41e5	1.21e5		5884	4923
kl-5 (retired record)	DRSC20707	95723	2.49e5		4091	9287
kl-5 (retired record)	DRSC20736	5.01e5	2.05e5		31713	4458
kl-5 (retired record)	DRSC20773	6.28e5	1.87e5		34069	4261
kl-5 (retired record)	DRSC21161	5.88e5	2.51e5		31859	5965
CG32452	DRSC11581	4.17e5			9517	
LeuRS	DRSC00581	1.33e5	91293		3474	7165
